# According to PubChem BioAssay AID504444 (National Center for Advancing Translational Sciences (NCATS), 2011):
# Out of some 360,000 compounds screened, about 7,500 (2.1%) were called active. The shares of active, inactive and inconclusive entries below differ from those in the screen. Calls come from the whole dose curve; as a rule, active = well fitted inhibition curve with a large enough effect; inconclusive = small, poorly fitted or top-dose-only effect, or effect the other way; inactive = flat fitted curve, though single readings scatter. Potencies of inconclusive entries are doubtful fits and often do not repeat.
# Test: Nrf2 qHTS screen for inhibitors; note: nearly all actives have a fitted effect of over 60% in size
# Conditions: A549 ARE-Fluc reporter, luciferase luminescence, 18-24 h; activity change, negative = inhibition: at 46 µM (top of the series)
# Method in brief: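 A549 ARE_Fluc cells (5000/well, 5% FBS OPTI-MEM) pre-incubated 2 h, then treated with compounds 18-24 h at 37C/5% CO2 in concentration-response. CellTiter-Fluor viability read first; BugLite luciferase luminescence after 15 min at room temperature gives Nrf2 activity.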
# % is set by controls: 0 for no effect and ±100 for the full control effect; potency is the fitted concentration of half-maximal effect.
SMILES,Potency,"activity change, negative = inhibition"
Cn1c(Cl)cnc1C1CC(=O)c2cc(Cl)ccc2O1 (configuration not stated),"inconclusive: 25.9 µM [falling, single point]",
COc1ccc(N2CCN(C(=O)c3ccc(CS(=O)(=O)c4ccccc4C)o3)CC2)cc1,"inconclusive: 1.3 µM [falling, partial curve, poor fit]",
Cc1cccc(NC(=O)C2COc3ccccc3O2)c1 (configuration not stated),"inconclusive: 13 µM [activator, partial curve, poor fit]",
COc1ccc(-c2nc(CSCC(=O)N3CCN(c4ccc(OC)cc4)CC3)c(C)o2)cc1,active: 4.61 µM,
CCCn1nnc(NC(=O)c2ccco2)n1,"inconclusive: 18.4 µM [activator, partial curve, poor fit]",
Cc1cccc2c(C(=O)N3CCN(c4ccccc4)CC3)cc(-c3ccncc3)nc12,,inactive: 23.4%
COc1ccccc1-n1c(SCC(=O)Nc2ccc(F)cc2)nc2c(c1=O)SCC2,"inconclusive: 32.6 µM [falling, single point]",
COc1ccc(C2=NN(S(C)(=O)=O)C(c3cccs3)C2)cc1 (configuration not stated),"inconclusive: 9.2 µM [activator, partial curve, poor fit]",
O=S(=O)(c1ccc(N=C2NN=C(c3cc(F)ccc3F)CS2)cc1)N1CCOCC1,"inconclusive: 29.1 µM [falling, single point]",
Cc1cc(C)cc(NC(=O)c2c(C)nc3ccccn23)c1,"inconclusive: 16.4 µM [activator, partial curve, poor fit]",
COc1cccc(-n2c([S-])c(C(=O)Nc3ccc(S(=O)(=O)N4CCOCC4)cc3)[n+]3cc(C(N)=O)ccc23)c1,,inactive: -5.44%
CC(C)Oc1ccc(C(=O)Nc2ncn[nH]2)cc1,"inconclusive: 9.2 µM [activator, partial curve, poor fit]",
CCN(CCCNC(=O)c1cc2cc3ccc(C)cc3nc2s1)c1ccccc1,,inactive: 0.505%
C=CCc1cccc2cc(C(=O)Nc3ccc(CC(=O)O)cc3)c(=O)oc12,"inconclusive: 18.4 µM [falling, partial curve]",
O=C1COc2ccccc2N1Cc1ccc(Cl)cc1,"inconclusive: 20.6 µM [falling, partial curve, poor fit]",
CCCN(c1ccccc1CC)S(=O)(=O)c1ccc2c(c1)CC(C)N2C(=O)C1CC1 (configuration not stated),active: 20.6 µM,
COc1ccc(CCC(=O)Nc2cc3c4c(c2)CCC(=O)N4CCC3)cc1,,inactive: -26.6%
CC(C)CSc1nnc2c3ccccc3n(C)c2n1,"inconclusive: 8.2 µM [activator, partial curve]",
Cc1ccc(OCc2cnc(Cl)s2)c(C)c1,"inconclusive: 16.4 µM [activator, partial curve]",
COc1ccc(/C=N/NC(=O)c2nc(-c3ccccc3)n(-c3ccccc3)n2)cc1,,inactive: -6.26%
CCOC(=O)c1ccc(S(=O)(=O)NCC(c2ccc(N(C)C)cc2)c2c[nH]c3ccccc23)cc1 (configuration not stated),"inconclusive: 29.1 µM [falling, single point]",

# Exported with tabs: part of the list above
SMILES	Potency	activity change, negative = inhibition
Cn1c(Cl)cnc1C1CC(=O)c2cc(Cl)ccc2O1 (configuration not stated)	inconclusive: 25.9 µM [falling, single point]	
CCCn1nnc(NC(=O)c2ccco2)n1	inconclusive: 18.4 µM [activator, partial curve, poor fit]	
COc1ccc(C2=NN(S(C)(=O)=O)C(c3cccs3)C2)cc1 (configuration not stated)	inconclusive: 9.2 µM [activator, partial curve, poor fit]	
Cc1cc(C)cc(NC(=O)c2c(C)nc3ccccn23)c1	inconclusive: 16.4 µM [activator, partial curve, poor fit]	
CCN(CCCNC(=O)c1cc2cc3ccc(C)cc3nc2s1)c1ccccc1		inactive: 0.505%
O=C1COc2ccccc2N1Cc1ccc(Cl)cc1	inconclusive: 20.6 µM [falling, partial curve, poor fit]	
CCCN(c1ccccc1CC)S(=O)(=O)c1ccc2c(c1)CC(C)N2C(=O)C1CC1 (configuration not stated)	active: 20.6 µM	
COc1ccc(CCC(=O)Nc2cc3c4c(c2)CCC(=O)N4CCC3)cc1		inactive: -26.6%
COc1ccc(/C=N/NC(=O)c2nc(-c3ccccc3)n(-c3ccccc3)n2)cc1		inactive: -6.26%
CCOC(=O)c1ccc(S(=O)(=O)NCC(c2ccc(N(C)C)cc2)c2c[nH]c3ccccc23)cc1 (configuration not stated)	inconclusive: 29.1 µM [falling, single point]	

# The list continues:

SMILES,Potency,"activity change, negative = inhibition"
CC1CCc2sc3ncnc(N4CCN(CCO)CC4)c3c2C1 (configuration not stated),"inconclusive: 9.2 µM [falling, partial curve, poor fit]",
COc1cc(-c2nc(Cn3nnc(C(=O)Nc4cc(C)cc(C)c4)c3C)c(C)o2)cc(OC)c1OC,,inactive: -20.7%
N#Cc1ccc(NC(=O)Nc2cccc(C#N)c2)cc1,"inconclusive: 20.6 µM [falling, partial curve]",
Cc1ccc(NC(=O)CCN2C(=O)C3CCCCC3C2=O)cc1[N+](=O)[O-] (configuration not stated),,inactive: -14.9%
CCOc1ccc(-c2nc(C#N)c(NCC3CCCO3)o2)cc1 (configuration not stated),,inactive: -15.2%
O=C(COC(=O)c1ccc(-n2cnnn2)cc1)Nc1cc(Cl)ccc1F,"inconclusive: 0.0411 µM [falling, full curve, poor fit]",
CCN(CC)C(=O)C1CCCN(C(=O)c2cc(COc3ccc4ncccc4c3)on2)C1 (configuration not stated),"inconclusive: 18.4 µM [falling, partial curve]",
Cc1ccc[n+](CC(=O)c2ccc(Br)cc2)c1,active: 23.1 µM,
CCCCN(CCCC)CC(O)Cn1cc(/C=C/C(=O)c2ccccc2)c2ccccc21 (configuration not stated),,inactive: -4.13%
CC(C(=O)NC1CCCC1)N1CCN(S(=O)(=O)c2ccc(C(C)(C)C)cc2)CC1 (configuration not stated),"inconclusive: 9.2 µM [falling, partial curve, poor fit]",
O=C(CCSc1nc(-c2ccco2)cc(C(F)(F)F)n1)N1CCN(c2ccccc2)CC1,"inconclusive: 18.4 µM [falling, partial curve, poor fit]",
On1c(-c2ccc(Cl)cc2)nc2ccccc21,"inconclusive: 29.1 µM [activator, single point]",
O=c1c(=O)n(-c2cccc(Cl)c2)ccn1Cc1cccc(F)c1,,inactive: 11.4%
O=C1[C@H]2CCC=C[C@H]2[C@H](c2cccc(Br)c2)N1Cc1ccccc1,"inconclusive: 3.26 µM [falling, partial curve, poor fit]",
CC1(C)OC(c2ccccc2)=C/C(=C/C=N/NC(=O)c2ccncc2)O1,"inconclusive: 3.66 µM [falling, partial curve, poor fit]",
CC(=O)Nc1cccc(NC(=O)CSc2ccc(C(F)(F)F)cc2[N+](=O)[O-])c1,"inconclusive: 3.26 µM [activator, full curve, poor fit]",
CC(=O)c1c(N2CCOCC2)[nH]c(-c2ccccc2)nc1=S,"inconclusive: 29.1 µM [falling, single point]",
CCC1(CC)Cc2ccccc2-c2nc(NCCO)[nH]c(=O)c21,"inconclusive: 29.1 µM [falling, single point]",
Nc1cc(Cl)nc(N/N=C/c2ccc([N+](=O)[O-])cc2)n1,"inconclusive: 0.103 µM [falling, full curve, poor fit]",
COc1ccc(NC(=O)Cn2nnc(C(=O)NCCc3ccccc3)c2N)c(OC)c1,"inconclusive: 16.4 µM [falling, partial curve, poor fit]",
CC(C)(O)C#Cc1ccc([C@@H]2C[C@H]3CN(c4ccccc4)C(=O)[C@]34CCCN24)s1,"inconclusive: 20.6 µM [activator, partial curve]",
